Source: patent publication US20190161525A1 (NATIONAL CHENG KUNG UNIVERSITY, published 2019)

Tests used:
recombinant His-Tau [1] = test: incubation in PBS, reducing SDS-PAGE and Western blot
recombinant His-Tau [2] = test: incubation in PBS, reducing SDS-PAGE

B1: Zfra1-31 (full-length zinc finger-like protein that regulates apoptosis, synthetic peptide) (peptide)
peptide: MSSRRSSSCKYCEQDFRAHTQKNAATPFLAN
notes: also called Zfra peptide; full-length Zfra
In the case of B1, the binding (recombinant His-Tau [1]) is reported as “binds” and the binding (recombinant His-Tau [2]) is reported as “binds”.

No constants are given. Whether binding was seen depends on the method and setting. A result given as binding can be weak or reduced; the word gives no strength.
